Article PMC12431657, “Discovery and mechanistic insights of dibenzoylmethane as a broad spectrum inhibitor of coronavirus” (PLOS Pathogens, 2025)
Counter-ions that a name gives are not always drawn. Like-named read-outs stand apart in the source and are kept apart here. Out of some 3,300 compounds screened, about 60 (2%) showed an effect of 50% or more. The list shows a part of the results.

Tested on: HCoV-OC43
Design: species or system RD; HTS, protection from HCoV-OC43 induced cell death, luminescent cell viability (CellCounting-Lite 2.0), inhibition rate
Conditions: 24 h post infection, 1 h compound pre-incubation, 10 µM, inhibitor

Structure (SMILES) | OC43 Inhibition rate [%] | OC43 Inhibition rate (OC43 Inhibition rate, 24 h) [%]
CC(C)CC(N)=O [Isovaleramide] | -0.6 | 
N[C@@H](Cc1c[nH]cn1)C(=O)O [L-Histidine (hydrochloride hydrate)] |  | 2.4
CC1=C[C@H]2[C@@]3(O)[C@H](C)[C@@H](O)[C@]4(O)[C@H]([C@@H]3C=C(CO)C[C@]2(O)C1=O)C4(C)C [Phorbol] | 0.2 | 
C=C1C(=O)O[C@H]2C[C@@H](C)[C@@H]3[C@@H](OC(C)=O)C[C@H](O)[C@@]3(C)[C@@H](OC(C)=O)[C@H]12 [Britannin] | 2.5 | 
N#Cc1ccc(C(c2ccc(C#N)cc2)n2cncn2)cc1 [Letrozole] | 3.4 | 
CCCCCCCCCCCCCCCCCCOCC(O)CO (stereo not drawn) [Batilol] | -1.3 | 
CCC(=O)C(C)=O [2,3-Pentanedione] | -0.2 | 
C=C(C(=O)c1c(OC)cc2c(c1OC)OCO2)c1ccccc1O [Biliatresone] | 2.7 | 
CC1NC(=O)CNC1=O (stereo not drawn) [Cyclo(Ala-Gly)] | -0.2 | 
C=C(C)[C@@H]1CC=C(C)CC1 [(-)-Limonene] | -0.1 | 
O=C1CCCCN1 [2-Piperidone] | 0.6 | 
CC(C)NCC(O)COc1cccc2ccccc12 (stereo not drawn) [Propranolol] |  | 36.7
O=C(O)c1ccc(O)c(O)c1 [Protocatechuic acid] | 0.2 | 
CC(C)=C/C=C1\O[C@@H]2CC(C)=CC(=O)[C@@H]2[C@]1(C)O [Bisabolangelone] | -1.6 | 
CC1(C)C=Cc2c(ccc(-c3coc4cc(O)ccc4c3=O)c2O)O1 [Glabrone] | -2.5 | 
Cc1c2ccncc2c(C)c2c1[nH]c1ccccc12 [Ellipticine (hydrochloride)] | 30.7 | 
CC(=O)O[C@H]1CC[C@]2(C)C3=C(CC[C@H]2C1(C)C)[C@]1(C)CC[C@H]([C@@H](CCC=C(C)C)C(=O)O)[C@@]1(C)CC3 [Tsugaric acid A] | -1.8 | 
CC(C)c1ccc(C(=O)O)cc1 [4-Isopropylbenzoic acid] | -0.4 | 
CC(=O)O[C@H]1[C@H]2[C@H]([C@@H]3[C@H]4OC(=O)[C@@](C)(O)[C@@]5(C)C(=O)C[C@@H](C)[C@@H]([C@@H]45)[C@@]3(C)[C@H]1OC(C)=O)[C@@H](OC(C)=O)C(=O)[C@H]1C[C@@H]3O[C@@H]3[C@H](OC(C)=O)[C@]21C [Taccalonolide C] | -2.3 | 
COC(=O)C1=CC[C@@]23CC[C@@H]([C@@](C)(/C=C/C=C(\C)C(=O)O)OC2=O)[C@@]3(O)CC1 [Pseudolaric Acid C] | 1.1 | 

Structure (SMILES) | OC43 Inhibition rate [%] | OC43 Inhibition rate (OC43 Inhibition rate, 24 h) [%]
C[C@@H](CC[C@@]1(O)O[C@H]2C[C@H]3[C@@H]4CC[C@@H]5C[C@@H](O[C@@H]6O[C@H](CO)[C@H](O)[C@H](O)[C@H]6O[C@@H]6O[C@H](CO)[C@@H](O)[C@H](O)[C@H]6O)CC[C@]5(C)[C@H]4CC[C@]3(C)[C@H]2[C@@H]1C)CO[C@@H]1O[C@H](CO)[C@@H](O)[C@H](O)[C@H]1O [Timosaponin BII] | 0.5 | 
CC(C)=CCc1c(-c2ccc(O)cc2O)oc2c(CC=C(C)C)c(O)cc(O)c2c1=O [Mulberrin] | 51.7 | 
C=CCc1ccc(O)c(O)c1 [4-Allylcatechol] | 1 | 
CC1(C)CC[C@]2(C(=O)O)CC[C@]3(C)C(=CC[C@@H]4[C@@]5(C)CC[C@H](O[C@@H]6O[C@H](C(=O)O)[C@@H](O)[C@H](O[C@@H]7OC[C@@H](O)[C@H](O)[C@H]7O)[C@H]6O)C(C)(C)[C@@H]5CC[C@]43C)[C@@H]2C1 [Momordin Ic] | -0.6 | 
Cc1cc(O[C@@H]2O[C@H](CO)[C@@H](O)[C@H](O)[C@H]2O)c2c(c1)C(=O)c1cccc(O)c1C2=O [Chrysophanein] | 2.2 | 
C[C@H]1O[C@H](O[C@H]2[C@H](O)[C@@H](O)[C@@H](O[C@H]3[C@H](O)[C@@H](O)C(O)O[C@@H]3CO)O[C@@H]2CO)[C@H](O)[C@@H](O)[C@@H]1N[C@H]1C=C(CO)[C@@H](O)[C@H](O)[C@H]1O (stereo partly drawn) [Acarbose] | -2.8 | 
c1cncc(C2CCCCN2)c1 (racemic) [(±) Anabasine] | -0.1 | 
COc1cc(/C=C/C(=O)O)ccc1O [(E)-Ferulic acid] |  | -0.7
N#CCCN [β-Aminopropionitrile] | -0.8 | 
CC1(C)CC[C@]2(C(=O)O)CC[C@]3(C)C(=CC[C@@H]4[C@@]5(C)CC[C@H](O[C@@H]6OC[C@H](O)[C@H](O)[C@H]6O)[C@@](C)(CO)[C@@H]5CC[C@]43C)[C@@H]2C1 [Cauloside A] | -3.8 | 
C[C@H]1CC[C@@H]2[C@@H](C)[C@H]3[C@H](C[C@H]4[C@@H]5CC=C6C[C@@H](O)CC[C@]6(C)[C@H]5CC[C@]34C)N2C1 [Solanidine] | -0.2 | 
CC(C)=CCc1c(-c2ccc(O)cc2O)oc2c3c(cc(O)c2c1=O)OC(C)(C)C=C3 [Morusin] | 5.8 | 
C[C@H](CCC(=O)O)[C@H]1CC[C@H]2[C@@H]3C(=O)C[C@@H]4C[C@H](O)CC[C@]4(C)[C@H]3CC[C@]12C [7-Ketolithocholic acid] | -0.3 | 
COc1cc2c3c(c1OC)-c1ccccc1C[C@H]3NCC2 [N-Nornuciferine] | 12.4 | 
CC/C=C/CC1C(=O)CCC1CC(=O)OC (stereo not drawn) [Methyl 2-(3-oxo-2-(pent-2-en-1-yl)cyclopentyl)acetate] | 1.5 | 
COC[C@@H]1Cc2cc(OC)c3c(c2[C@H](c2ccc(OC)c(OC)c2)[C@H]1COC)OCO3 [Hypophyllanthin] | 11.3 | 
COc1cc(C(=O)OCCCCNC(=N)N)cc(OC)c1O [Leonurine] |  | -0.2
COc1cc(/C=C/C(=O)O[C@H]2CC[C@]34C[C@]35CC[C@]3(C)[C@@H]([C@H](C)CCC=C(C)C)CC[C@@]3(C)[C@@H]5CC[C@H]4C2(C)C)ccc1O [γ-Oryzanol] | -0.7 | 
CC(=O)O[C@@H]1[C@@H](O)[C@H](O[C@H]2CC[C@]34C[C@]35CC[C@]3(C)[C@@H]([C@@]6(C)CC[C@@H](C(C)(C)O)O6)[C@@H](O)C[C@@]3(C)[C@@H]5C[C@H](O[C@@H]3O[C@H](CO)[C@@H](O)[C@H](O)[C@H]3O)[C@H]4C2(C)C)OC[C@H]1O [Isoastragaloside II] | -0.2 | 

Random excerpt: two entries already listed
Structure (SMILES) | OC43 Inhibition rate [%] | OC43 Inhibition rate (OC43 Inhibition rate, 24 h) [%]
COC[C@@H]1Cc2cc(OC)c3c(c2[C@H](c2ccc(OC)c(OC)c2)[C@H]1COC)OCO3 [Hypophyllanthin] | 11.3 | 
C=CCc1ccc(O)c(O)c1 [4-Allylcatechol] | 1 | 
